PubChem BioAssay AID1259273 – Sanger Institute – 2017

- Aim: 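Confirm kinome hits that work in synergy with targeted cancer drugs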 (follow-up of hits)
- Cell system: human NCI-H630 colorectal cancer cells
- Reagents: single siRNA against human genes
- Challenge: anchor drugs BYL719 at 1 µM, cetuximab at 5 µg/ml or trametinib at 10 nM, or DMSO vehicle alone
- Measurement: 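Replicate-averaged viability scaled to non-targeting control pool wells, plus per-drug synergy scores comparing knock-down with drug to knock-down only and drug only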
- Direction: synergy score with trametinib and synergy score with BYL719 and synergy score with cetuximab: higher = stronger synergy, more synthetic lethal
- Call rule: 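Called synergistic (synthetic lethal) when the mean synergy score is above 0.10 for one or more of the three anchor drugs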
Here is an unselected part of 160 reagents. 36 of all reagents (22%) were called active. 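Four distinct siRNA duplexes per gene; each call applies to one duplex and is not gene-level validation across cell lines.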 A number with no mark means an inactive call. Not all columns of the deposit are shown. Not given: the amount of reagent, the time to read-out.

PINK1 (PTEN induced kinase 1) [SID56476283] gave synergy score with trametinib -0.103; synergy score with BYL719 = -0.146; synergy score with cetuximab -0.229.
Silencing of PINK1 (PTEN induced kinase 1) [SID56476284] came out at: synergy score with trametinib 0.0831; synergy score with BYL719 = -0.128; synergy score with cetuximab -0.165.
Silencing of PINK1 (PTEN induced kinase 1) [SID56476285] gave: synergy score with trametinib 0.0421; synergy score with BYL719 = -0.0614; synergy score with cetuximab -0.0108.
For PINK1 (PTEN induced kinase 1) [SID56476286], the values are synergy score with trametinib 0.147 (active); synergy score with BYL719 = -0.0735; synergy score with cetuximab 0.0331.
PIK3CA [SID56475149] showed synergy score with trametinib 0.00826; synergy score with BYL719 = -0.0606; synergy score with cetuximab -0.0903.
PIK3CA [SID56475150] gave synergy score with trametinib 0.0359; synergy score with BYL719 = -0.205; synergy score with cetuximab 0.0139.
After knock-down of PIK3CA [SID135611211] the results were synergy score with trametinib 0.0144; synergy score with BYL719 = -0.115; synergy score with cetuximab -0.23.
Depletion of PIK3CA [SID135611212] came out at: synergy score with trametinib -0.103; synergy score with BYL719 = -0.146; synergy score with cetuximab -0.23.
After knock-down of PLK1 (polo like kinase 1) [SID56475783] the results were synergy score with trametinib 0.00411; synergy score with BYL719 = 0.0377; synergy score with cetuximab -0.0406.
PLK1 (polo like kinase 1) [SID56475784] gave synergy score with trametinib -0.022; synergy score with BYL719 = 0.0222; synergy score with cetuximab -0.0861.
After knock-down of PLK1 (polo like kinase 1) [SID56475785] the results were synergy score with trametinib -0.0432; synergy score with BYL719 = -0.0258; synergy score with cetuximab -0.0767.
With knock-down of PLK1 (polo like kinase 1) [SID56475786], the record shows synergy score with trametinib -0.0736; synergy score with BYL719 = -0.0175; synergy score with cetuximab -0.0935.
